Construct, isoform or probe ends are uncertain for at least one entry. For some assays here: Results from cells or extracts need not show a direct contact. For some assays here: Negatives hold for the conditions tested.
Key:
[1] = biological target: EpCAM (native, on the surface of human cancer cell lines T47D, MCF7, MDA-MB-231, HT29) (Homo sapiens) (UniProt P16422); assay: binding assay; details: protein on the cell surface
[2] = biological target: EpCAM (native, on the surface of human cancer cell lines T47D, MCF7, MDA-MB-231, HT29) (Homo sapiens) (UniProt P16422); assay: flow cytometry; details: protein on the cell surface
Dicer (recombinant) = Dicer (recombinant) (UniProt Q9UPY3); assay: enzyme reaction in vitro; details: 2'-F pyrimidines in long strand; chimera cleaved by recombinant Dicer to 21-mer siRNA; purified recombinant protein; label: 5'-DY647 on short strand; variant of Aptamer 23 (Ep23)

Chains of the proteins cited; added tags and fusions are not shown. Lines headed by an entry give the natural chain unless they say otherwise; changes in a name come on top. Residues count along the entry.
UniProt P16422, 24-314, stated change not applied: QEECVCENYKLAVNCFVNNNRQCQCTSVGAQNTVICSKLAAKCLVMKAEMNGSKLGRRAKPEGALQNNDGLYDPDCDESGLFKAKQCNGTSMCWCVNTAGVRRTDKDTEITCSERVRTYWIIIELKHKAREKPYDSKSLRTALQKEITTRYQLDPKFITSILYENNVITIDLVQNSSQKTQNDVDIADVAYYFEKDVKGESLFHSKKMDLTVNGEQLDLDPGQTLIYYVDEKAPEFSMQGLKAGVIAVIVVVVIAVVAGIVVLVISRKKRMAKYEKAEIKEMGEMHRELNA
UniProt Q9UPY3: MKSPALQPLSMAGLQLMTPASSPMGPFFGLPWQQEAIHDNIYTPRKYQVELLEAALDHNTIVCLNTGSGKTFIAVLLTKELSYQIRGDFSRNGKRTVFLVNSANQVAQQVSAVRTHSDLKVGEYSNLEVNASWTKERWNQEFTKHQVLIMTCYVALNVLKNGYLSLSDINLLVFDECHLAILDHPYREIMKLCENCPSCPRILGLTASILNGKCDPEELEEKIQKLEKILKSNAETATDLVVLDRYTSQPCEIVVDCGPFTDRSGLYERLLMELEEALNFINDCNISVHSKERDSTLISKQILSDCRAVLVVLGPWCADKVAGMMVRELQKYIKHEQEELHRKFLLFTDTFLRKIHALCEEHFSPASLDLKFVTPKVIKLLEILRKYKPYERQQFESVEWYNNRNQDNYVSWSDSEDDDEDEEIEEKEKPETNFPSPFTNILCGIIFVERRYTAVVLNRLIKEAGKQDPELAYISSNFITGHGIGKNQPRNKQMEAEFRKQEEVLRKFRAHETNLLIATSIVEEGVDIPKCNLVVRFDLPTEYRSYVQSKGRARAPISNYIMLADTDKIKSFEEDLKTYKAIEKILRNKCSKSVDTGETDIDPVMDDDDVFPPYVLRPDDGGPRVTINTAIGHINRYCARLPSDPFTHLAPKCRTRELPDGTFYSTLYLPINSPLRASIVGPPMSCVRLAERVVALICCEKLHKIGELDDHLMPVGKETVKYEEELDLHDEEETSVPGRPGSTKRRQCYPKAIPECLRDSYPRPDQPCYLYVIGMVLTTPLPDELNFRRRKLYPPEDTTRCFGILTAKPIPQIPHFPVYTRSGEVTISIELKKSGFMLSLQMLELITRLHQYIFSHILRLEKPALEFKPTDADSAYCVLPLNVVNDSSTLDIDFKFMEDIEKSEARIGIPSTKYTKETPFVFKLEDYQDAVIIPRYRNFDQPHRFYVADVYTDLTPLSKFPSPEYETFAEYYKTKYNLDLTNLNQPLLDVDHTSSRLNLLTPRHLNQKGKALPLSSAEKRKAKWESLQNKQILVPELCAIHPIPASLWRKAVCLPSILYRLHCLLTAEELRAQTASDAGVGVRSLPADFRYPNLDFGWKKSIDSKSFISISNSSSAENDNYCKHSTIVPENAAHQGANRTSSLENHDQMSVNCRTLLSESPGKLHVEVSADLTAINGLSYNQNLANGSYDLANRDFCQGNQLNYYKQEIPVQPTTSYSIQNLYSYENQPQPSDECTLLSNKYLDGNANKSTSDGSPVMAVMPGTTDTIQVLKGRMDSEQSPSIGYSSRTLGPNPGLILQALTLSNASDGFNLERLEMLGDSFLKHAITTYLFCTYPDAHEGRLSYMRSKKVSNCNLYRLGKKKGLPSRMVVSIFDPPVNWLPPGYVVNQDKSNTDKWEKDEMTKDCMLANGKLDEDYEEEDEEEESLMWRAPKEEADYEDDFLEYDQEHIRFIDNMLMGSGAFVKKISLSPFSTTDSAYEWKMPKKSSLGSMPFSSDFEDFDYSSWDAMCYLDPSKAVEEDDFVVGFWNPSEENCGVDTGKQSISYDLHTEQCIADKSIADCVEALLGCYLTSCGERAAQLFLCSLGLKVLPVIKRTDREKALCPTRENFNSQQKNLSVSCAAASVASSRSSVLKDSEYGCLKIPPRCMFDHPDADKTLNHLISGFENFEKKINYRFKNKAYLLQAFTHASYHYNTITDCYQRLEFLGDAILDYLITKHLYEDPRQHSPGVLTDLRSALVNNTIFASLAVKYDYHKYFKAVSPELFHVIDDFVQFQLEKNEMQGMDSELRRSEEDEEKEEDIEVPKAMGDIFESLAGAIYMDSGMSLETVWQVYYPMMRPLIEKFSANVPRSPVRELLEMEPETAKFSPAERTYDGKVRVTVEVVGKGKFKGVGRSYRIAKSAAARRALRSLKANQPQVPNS

For GCGACUGGUUACCCGGUCGT [control aptamer], the binding result ([1]; 2'-OMe at positions as printed (mGCmGACUmGmGUUmACCCmGmGUCmGdT), 3' dT, no staining of any xenograft section, label: 5'-DY647, variant of DT3 (EpDT3)) was “no binding”, the Kd ([2]; 2'-OMe at positions as printed (mGCmGACUmGmGUUmACCCmGmGUCmGdT), 3' dT, HT29 cells, label: 5'-DY647, variant of DT3 (EpDT3)) was 837 nM and the Kd ([2]; 2'-OMe at positions as printed (mGCmGACUmGmGUUmACCCmGmGUCmGdT), 3' dT, MCF7 cells, label: 5'-DY647, variant of DT3 (EpDT3)) was over 1000 nM. The Kd ([2]; 2'-OMe at positions as printed (mGCmGACUmGmGUUmACCCmGmGUCmGdT), 3' dT, MDA-MB-231 cells, label: 5'-DY647, variant of DT3 (EpDT3)) was over 1000 nM and the Kd ([2]; 2'-OMe at positions as printed (mGCmGACUmGmGUUmACCCmGmGUCmGdT), 3' dT, T47D cells, U118MG also >1000 nM, label: 5'-DY647, variant of DT3 (EpDT3)) was over 1000 nM.

GCGACUGGUUACCCGGUCG [DT3 (EpDT3)] was tested, and the binding result ([1]; 2'-F pyrimidines, 3'-inverted dT, staining of paraffin xenograft sections, 100 nM, 37 C: T47D ++, MCF7 +, MDA-MB-231 +, HT-29 -, U118MG -, label: 5'-DY647 (or 3'-FITC)) was “binds”, the Kd ([2]; 2'-F pyrimidines, 3'-inverted dT, HT29 cells, EpCAM-negative U118MG >1000 nM, label: 5'-DY647 (or 3'-FITC)) was 158 nM and the Kd ([2]; 2'-F pyrimidines, 3'-inverted dT, MCF7 cells, EpCAM-negative U118MG >1000 nM, label: 5'-DY647 (or 3'-FITC)) was 50 nM. It also gave a Kd ([2]; 2'-F pyrimidines, 3'-inverted dT, MDA-MB-231 cells, EpCAM-negative U118MG >1000 nM, label: 5'-DY647 (or 3'-FITC)) of 98.9 nM and a Kd ([2]; 2'-F pyrimidines, 3'-inverted dT, T47D cells, DPBS, MgCl2, tRNA, Scatchard, EpCAM-negative U118MG >1000 nM, label: 5'-DY647 (or 3'-FITC)) of 74.2 nM.

With ACGUAUCCCUUUUCGCGUA [Aptamer 23 (Ep23)] the binding result ([1]; 2'-F pyrimidines, staining of paraffin xenograft sections, 100 nM, 37 C: T47D +++, MCF7 ++, MDA-MB-231 +, HT-29 +++, U118MG -, label: 5'-TYE665 or 5'-DY647) was “binds”, the Kd ([2]; 2'-F pyrimidines, HT29 cells, EpCAM-negative U118MG >1000 nM, label: 5'-TYE665 or 5'-DY647) was 37 nM and the Kd ([2]; 2'-F pyrimidines, MCF7 cells, EpCAM-negative U118MG >1000 nM, label: 5'-TYE665 or 5'-DY647) was 63.7 nM. The Kd ([2]; 2'-F pyrimidines, MDA-MB-231 cells, EpCAM-negative U118MG >1000 nM, label: 5'-TYE665 or 5'-DY647) was 86.7 nM and the Kd ([2]; 2'-F pyrimidines, T47D cells, EpCAM-negative U118MG >1000 nM, label: 5'-TYE665 or 5'-DY647) was 41.2 nM.

For “ACGUAUCCCUUUUCGCGUAAAAUGUAGAGAUGCGGUGGUCCUU”, the binding result ([1]; 2'-F pyrimidines in long strand, confocal microscopy, internalised by EpCAM-positive HT-29 cells, not by EpCAM-negative HEK-293T, label: 5'-DY647 on short strand, variant of Aptamer 23 (Ep23)) was “binds” and the “activity on this sequence” value (Dicer (recombinant)) was “active”.
